This note sets out measurements from PMC12802285, “PPE64 is a mycomembrane channel protein that functions in heme iron uptake and moonlights in biofilm formation in Mycobacterium tuberculosis” (mBio, 2025).

The target of experiment [1] is PPE64 mycomembrane channel protein (recombinant, detergent-refolded) (Mycobacterium tuberculosis) (UniProt Q6MWW0). Description: native gel or EMSA; both purified. (A gel shift assay detects complexes by their altered migration in electrophoresis.)
Experiment [2] shares this target. The experiment is described as follows: SEC; both purified. On the technique in general: SEC sorts molecules by how far they enter the pores of the column.

Results are given in words; binding and its absence hold for the method and conditions named. Some entries that bind do so weakly or less than the wild type. Where a sequence is shown, tags or fusion partners need not be part of it.

B1: PPE64 mycomembrane channel protein (recombinant, detergent-refolded) (natural protein)
chain: MAHFSVLPPEINSLRMYLGAGSAPMLQAAAAWDGLAAELGTAASSFSSVTTGLTGQAWQGPASAAMAAAAAPYAGFLTTASAQAQLAAGQAKAVASVFEAAKAAIVPPAAVAANREAFLALIRSNWLGLNAPWIAAVESLYEEYWAADVAAMTGYHAGASQAAAQLPLPAGLQQFLNTLPNLGIGNQGNANLGGGNTGSGNIGNGNKGSSNLGGGNIGNNNIGSGNRGSDNFGAGNVGTGNIGFGNQGPIDVNLLATPGQNNVGLGNIGNNNMGFGNTGDANTGGGNTGNGNIGGGNTGNNNFGFGNTGNNNIGIGLTGNNQMGINLAGLLNSGSGNIGIGNSGTNNIGLFNSGSGNIGVFNTGANTLVPGDLNNLGVGNSGNANIGFGNAGVLNTGFGNASILNTGLGNAGELNTGFGNAGFVNTGFDNSGNVNTGNGNSGNINTGSWNAGNVNTGFGIITDSGLTNSGFGNTGTDVSGFFNTPTGPLAVDVSGFFNTASGGTVINGQTSGIGNIGVPGTLFGSVRSGLNTGLFNMGTAISGLFNLRQLLG
notes: also called PPE64_(OPOE); PPE64DDM
With B1, the binding entry in experiment [1] and in experiment [2] was “binds” in each case.
